# Data from PubChem BioAssay AID504444 (National Center for Advancing Translational Sciences (NCATS), 2011).
# Where “and” joins values, the source holds several entries; their conditions need not be identical. Equal values may be shown once. The whole screen tested about 360,000 compounds, of which about 7,500 (2.1%) were called active. Inconclusive results, whose numbers are uncertain, are shown with a selection of clear calls. Calls follow the shape of the dose curve; as a rule, active = well fitted inhibition curve with a large enough effect; inconclusive = small, poorly fitted or top-dose-only effect, or effect the other way; inactive = flat fitted curve, though single readings scatter. A potency beside an inconclusive call is a rough fit, not a confirmed value.
# Test: Nrf2 qHTS screen for inhibitors; also: nearly all actives have a fitted effect of over 60% in size
# Conditions: A549 ARE-Fluc reporter, luciferase luminescence, 18-24 h; activity change, negative = inhibition: at 46 µM (top of the series)
# Summary of the method: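 Nrf2 function is reported as luminescence of an ARE-controlled luciferase in A549 cells. Compounds were tested at several concentrations, and a CellTiter-Fluor read on the same wells flagged cytotoxicity.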
# % is scaled to controls: 0 for no effect and ±100 for the full control effect; potency is read from the fitted curve at half-maximal effect.
SMILES,Potency,"activity change, negative = inhibition"
CC(CCCc1ccccc1)NC(=O)c1nn(-c2ccc(Cl)cc2)nc1CO (stereo not given),"inconclusive: 16.4 µM [falling, single point]",
O=C(O)COc1ccc(/C=C2\SC(=Nc3ccccc3)N(c3ccccc3)C2=O)cc1,"inconclusive: 6.51 µM [falling, single point]",
Cc1ccc2[nH]c3c(=O)n(CC(=O)N4CCCC(C)C4)ncc3c2c1 (stereo not given),"inconclusive: 14.6 µM [activator, partial curve, poor fit]",
CCc1cccc(NC(=O)C(CC)n2nc(C)c3sc4ccccc4c3c2=O)c1 (stereo not given),"inconclusive: 36.6 µM [falling, single point]",
Cc1cc(SCC(=O)c2ccccc2)nc(=O)[nH]1,"inconclusive: 3.66 µM [activator, full curve]",
COc1ccc(C(=O)NC(=S)NCc2ccccc2)cc1,"inconclusive: 23.1 µM [activator, partial curve, poor fit]",
O=C(N/N=C/c1ccccc1)c1ccc(CN2C(=O)c3cccc4cccc2c34)cc1,,inactive: -7.97%
Clc1ccc(-n2nnnc2-c2cnc(-c3ccncc3)nc2-c2cccs2)cc1,"inconclusive: 32.6 µM [falling, single point]",
O=C(Cc1ccc(Cl)cc1)Nc1ccc(-c2nnc(-c3ccco3)o2)cc1,,inactive: -18.8%
Cc1c(C(=O)NCc2ccccc2Br)oc2ccc3c(c12)C(=O)CC(C)(C)O3,"inconclusive: 2.31 µM [activator, partial curve, poor fit]",
CC1=NN(c2ccccc2)C(=O)/C1=C\c1ccc(Oc2ccc([N+](=O)[O-])cc2[N+](=O)[O-])cc1,"inconclusive: 10.3 µM [activator, partial curve]",
O=C(OCc1nc2ccccc2s1)c1ccc(Br)o1,"inconclusive: 23.1 µM [activator, single point]",
CCOC(=O)c1sc(NS(=O)(=O)c2ccc(F)cc2)nc1C,"inconclusive: 1.64 µM [falling, partial curve, poor fit]",
CCOc1cc(/C=N/NC(=O)NN(C)c2ncc(C(F)(F)F)cc2Cl)ccc1O,"inconclusive: 23.1 µM [falling, single point]",
c1ccc(-c2nc(-c3ccccn3)no2)cc1,"inconclusive: 13 µM [falling, single point]",
O=S(=O)(c1cccc(Cl)c1)N1CCN(c2nc(-c3cccs3)nc3ccccc23)CC1,"inactive and inconclusive: 29.1 µM [activator, single point]",
CSCCC(NS(=O)(=O)c1ccc(C)cc1C)C(=O)Nc1cccnc1 (stereo not given),"inconclusive: 7.31 µM [activator, partial curve, poor fit]",
Cc1cccc(Cc2nnc(CCC(=O)N(C)CCc3ccccc3)o2)c1,"inconclusive: 20.6 µM [activator, partial curve]",
C=CCn1c(SCC(=O)/C(C#N)=C(\C)N)nc2sc(CC)cc2c1=O,"inconclusive: 29.1 µM [falling, single point]",
CCCCOc1ccc(CSC2=NCCN2)cc1[N+](=O)[O-],"inconclusive: 20.6 µM [activator, partial curve]",

SMILES,Potency,"activity change, negative = inhibition"
COc1ccc(Nc2nc(-c3ccccc3F)nc3ccccc23)cc1OC,"inconclusive: 0.116 µM [falling, partial curve, poor fit]",
O=S(=O)(c1ccc(F)cc1)N1CCN(c2nc(-c3ccc(F)cc3)nc3cc(Cl)ccc23)CC1,,inactive: 9.22%
O=C(CNc1cccc2ccccc12)N/N=C/c1ccccn1,"inconclusive: 23.1 µM [falling, single point]",
CSc1ccc(/C=C/C(=O)Nc2ccccc2)cc1,"inconclusive: 1.3 µM [activator, full curve]",
Cc1noc2ncnc(N3CCCC(C(=O)Nc4cccc(C(F)(F)F)c4)C3)c12 (stereo not given),active: 5.8 µM,
CCOC(=O)c1ccc(N/C=C/C(=O)c2ccc(OC)cc2)cc1,"inconclusive: 4.61 µM [activator, full curve]",
N#Cc1cnc(NOCc2ccc(Cl)cc2)nc1,"inconclusive: 2.59 µM [falling, partial curve, poor fit]",
COc1ccc(/C=C/C(=O)OCC(=O)Nc2ccc(Cl)c(S(=O)(=O)N(C)C)c2)cc1OC,,inactive: 0.478%
O=C(CCNC(=O)c1ccccc1Cl)Nc1ccc(Cl)c(C(F)(F)F)c1,,inactive: 1.26%
CCOc1ccccc1N1CCN(C(=O)c2ccc3[nH]c4c(c3c2)CCCC4)CC1,"inconclusive: 29.1 µM [falling, partial curve, poor fit]",
CCc1c(C)c(C#N)c2nc3ccccc3n2c1Nc1cccc(C(F)(F)F)c1,,inactive: 6.37%
O=S(=O)(c1cccc(-c2n[nH]c(=S)n2-c2ccccc2Cl)c1)N1CCOCC1,"inconclusive: 29.1 µM [activator, single point]",
NC(=O)CC(NC(=O)Cc1ccc(Br)cc1)c1ccc(NC2CCCCCCC2)c([N+](=O)[O-])c1 (stereo not given),"inconclusive: 29.1 µM [falling, single point]",
CC(NC(=O)c1ccccc1F)C1CC1 (stereo not given),"inconclusive: 1.46 µM [activator, full curve]",
COc1ccc(Nc2nc(OC)nc(OC)n2)cc1,,inactive: 1.11%
COc1ccc(C(=O)Nc2ccc(-c3cn4ccsc4n3)cc2)cc1S(=O)(=O)N1CCOCC1,"inconclusive: 13 µM [falling, partial curve, poor fit]",
CCc1nc2c(cnn2-c2ccc(Cl)cc2)c(=O)n1-c1ccc(OC)cc1,"inconclusive: 23.1 µM [falling, single point]",
COc1ccc(NC(=O)c2ccc3c(c2)CCN3S(=O)(=O)c2ccccc2)cc1,"inconclusive: 29.1 µM [falling, single point]",
NC(=O)CC(NC(=O)Cc1ccc(Br)cc1)c1ccc(NCc2ccc(F)c(F)c2)c([N+](=O)[O-])c1 (stereo not given),"inconclusive: 29.1 µM [falling, single point]",
COc1ccc2c(C)cc3nnnn3c2c1,"inconclusive: 25.9 µM [falling, partial curve, poor fit]",

# Sorted by count of non-hydrogen atoms (low to high): some entries from above
SMILES,Potency,"activity change, negative = inhibition"
O=C(CCNC(=O)c1ccccc1Cl)Nc1ccc(Cl)c(C(F)(F)F)c1,,inactive: 1.26%
COc1ccc(C(=O)Nc2ccc(-c3cn4ccsc4n3)cc2)cc1S(=O)(=O)N1CCOCC1,"inconclusive: 13 µM [falling, partial curve, poor fit]",
NC(=O)CC(NC(=O)Cc1ccc(Br)cc1)c1ccc(NCc2ccc(F)c(F)c2)c([N+](=O)[O-])c1 (stereo not given),"inconclusive: 29.1 µM [falling, single point]",
